Patent US8257965B2, “Arrays of biological membranes and methods and use thereof” (Corning Incorporated, priority 2001, dated 2012)
For at least one compound, name, drawing or mass did not settle the structure.

The chains behind the UniProt entries cited, without tags or fusion partners.
UniProt P30989, whole entry: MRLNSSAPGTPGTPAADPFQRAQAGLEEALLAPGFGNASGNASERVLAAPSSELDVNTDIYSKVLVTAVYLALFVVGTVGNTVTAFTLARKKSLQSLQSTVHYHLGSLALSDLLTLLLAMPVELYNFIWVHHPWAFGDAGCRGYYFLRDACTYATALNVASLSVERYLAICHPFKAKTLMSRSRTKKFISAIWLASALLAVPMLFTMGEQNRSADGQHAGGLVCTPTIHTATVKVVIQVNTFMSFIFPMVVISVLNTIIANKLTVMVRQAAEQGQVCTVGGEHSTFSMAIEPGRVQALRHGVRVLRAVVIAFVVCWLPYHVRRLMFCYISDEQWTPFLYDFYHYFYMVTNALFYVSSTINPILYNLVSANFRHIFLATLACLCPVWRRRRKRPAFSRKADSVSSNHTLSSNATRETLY

Target: T1, neurotensin receptor subtype 1 (NTR1) (Homo sapiens, UniProt P30989)
T1 construct: purchased Perkin Elmer Life Science (Boston, Mass.)
Assay: Competition binding of BT-neurotensin to NTR1 receptor arrays on CMT-GAPS slides
Details: BT-NT 2 nM, unlabeled ligand 1 μM

CN1CCc2cc(Cl)c(O)cc2[C@@H](c2ccccc2)C1 [SCH 23390]
effect on intensities of NTR1 spots (inhibition of BT-NT binding): no significant decrease
